The subject of the test is Dendritic cells + T cells + CD3/CD28 beads. Kind of test: CRS assay: dendritic cells + T cells + CD3/CD28 beads, IL6 ELISA. It counts as cell-based. The conditions noted are these: human PBMC-derived dendritic cells, 1 hour compound pre-incubation, overnight with T cells and CD3/CD28 beads; IL-6 primarily produced by the dendritic cells. The text has this:
Human PBMC cells (PPA Research Group, Cat No. 15-00021); RPMI media 10% FBS; GMCSF (Peprotech, Cat No. 300-03) and IL4 (Peprotech Cat No. 200-04); White clear bottom 96 well plates (Fisher, Cat No. 07-200-587, Corning #3903); Human IL-2 DuoSet ELISA (R&D Systems, Cat No. DY202); Human IL-6 DuoSet ELISA (R&D Systems, Cat No. DY206); Cell Titer Glo reagent (Promega, Cat No. G7573); Dynabeads Human T-Activator CD3/CD28 (Fisher, Cat No. 111.61D); Anti-human CD3 (BD Biosciences, Cat No. 555336); CD28, Clone CD28.2 (Beckman Coulter Inc. Cat No. IM1376); Recombinant Human IL-2 Protein (R&D Systems, Cat No. 202-IL-500).
Human peripheral blood mononuclear cells (PBMC) (400 million) obtained from the vendor were transferred into three T-175 flasks containing 16 ml RPMI media (10% fetal bovine serum (FBS)) and incubated for 2 hours at 37° C. After 2 hours, floating PBL was removed and the cell was rinsed twice with 10 ml of media. The PBL and media was saved for T cell expansion. 16 ml of fresh RPMI media (10% FBS) containing Granulocyte Macrophage Colony—Stimulating Factor (GMCSF) (100 ng/ml) and IL4 (20 ng/ml) was added and the flask was kept in a 37° C. incubator. […]
After incubation, 80 μl of the supernatant was harvested from each well for IL6 ELISA and 80 μl of the supernatant for IL2 ELISA. […] The plate was read for luminescence intensity to determine the compound cytotoxicity.
(ELISA stands for enzyme-linked immunosorbent assay.)

As usually defined, the EC50 is the midpoint of the concentration-response curve. As to `C[C@@H]1CCN(C(=O)CC#N)C[C@@H]1N(C)c1ncnc2[nH]ccc12` [Tofacitinib, reference compound], the EC50 is 108 nM.

(Values after patent publication US20220249475A1, “COMPOUNDS AND METHOD FOR TREATING CYTOKINE RELEASE SYNDROME” (Rigel Pharmaceuticals, Inc., priority 2019, published 2022).)
